The target in one assay is T1, Myc-tagged DDX50 (UniProt Q9BQ39).
T1 sequence: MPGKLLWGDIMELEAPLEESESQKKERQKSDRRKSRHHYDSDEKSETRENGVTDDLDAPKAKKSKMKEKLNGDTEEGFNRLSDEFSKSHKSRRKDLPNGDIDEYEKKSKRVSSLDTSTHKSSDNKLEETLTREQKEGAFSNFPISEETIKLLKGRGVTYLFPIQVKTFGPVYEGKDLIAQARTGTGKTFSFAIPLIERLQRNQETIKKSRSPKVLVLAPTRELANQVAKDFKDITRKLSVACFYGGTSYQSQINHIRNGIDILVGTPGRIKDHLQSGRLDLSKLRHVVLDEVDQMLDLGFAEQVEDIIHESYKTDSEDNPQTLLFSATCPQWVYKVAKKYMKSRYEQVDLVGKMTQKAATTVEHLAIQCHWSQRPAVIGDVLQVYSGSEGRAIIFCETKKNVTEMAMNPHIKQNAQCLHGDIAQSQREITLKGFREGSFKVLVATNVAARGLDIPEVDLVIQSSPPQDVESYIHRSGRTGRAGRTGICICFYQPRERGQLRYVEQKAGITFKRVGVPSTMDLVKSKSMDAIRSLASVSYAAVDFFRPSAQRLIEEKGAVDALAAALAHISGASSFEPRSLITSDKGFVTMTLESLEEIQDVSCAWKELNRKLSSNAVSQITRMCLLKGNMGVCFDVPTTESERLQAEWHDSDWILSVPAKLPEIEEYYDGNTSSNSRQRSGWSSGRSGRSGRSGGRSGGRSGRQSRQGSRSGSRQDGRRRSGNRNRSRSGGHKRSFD
In words: pull-down.

A further assay has as its target T2, Myc-tagged DDX56 (UniProt Q9NY93).
T2 sequence: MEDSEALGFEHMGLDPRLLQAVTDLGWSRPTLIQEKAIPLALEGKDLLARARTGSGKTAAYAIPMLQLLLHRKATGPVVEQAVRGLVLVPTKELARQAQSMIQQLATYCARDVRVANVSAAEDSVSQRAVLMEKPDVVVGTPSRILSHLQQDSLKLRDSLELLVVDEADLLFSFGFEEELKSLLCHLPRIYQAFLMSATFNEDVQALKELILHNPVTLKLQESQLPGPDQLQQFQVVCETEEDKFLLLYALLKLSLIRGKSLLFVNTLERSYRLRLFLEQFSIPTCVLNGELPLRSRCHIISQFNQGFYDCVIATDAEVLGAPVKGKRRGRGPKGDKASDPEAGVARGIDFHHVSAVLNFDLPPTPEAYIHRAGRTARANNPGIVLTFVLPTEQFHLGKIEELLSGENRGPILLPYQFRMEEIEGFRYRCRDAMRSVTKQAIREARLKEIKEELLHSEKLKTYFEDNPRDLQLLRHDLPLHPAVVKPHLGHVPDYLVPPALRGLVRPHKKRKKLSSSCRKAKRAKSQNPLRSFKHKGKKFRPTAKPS
Kind of assay: pull-down.

No constants are given. Whether binding was seen depends on the method and setting. Binding seen in cells or lysates may run through a third protein. Binding can be weak; no strength is given. Tags and fused reporters may be left off the sequences shown.

On to recombinant FLAG-tagged CK1γ2 (enzyme), for which the binding entry in the assay with Myc-tagged DDX50 and in the assay with Myc-tagged DDX56 was “binds” in each case.

The record behind these values is doi:10.1101/2021.12.20.473452.
